Results taken from PubChem BioAssay AID2685 (National Center for Advancing Translational Sciences (NCATS), 2010).
Some of the results follow. Shown are side measurements of this screen, not its main read-out; they come without a call. Most of these compounds were active or inconclusive in the main read-out, so they are no random draw. The note in brackets gives the kind of curve behind each potency; many fits are weak.

Assay: qHTS Assay for Lipid Storage Modulators in Drosophila S3 Cells;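 on cell number change: cells counted by Cell Tracker Red CMTPX staining in the red channel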
Conditions: BODIPY lipid droplet fluorescence, 18-24 h; for cell number change: measured here: cell count max response, cells fed with added oleic acid
How it was run: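 Laser-scanning cytometry quantifies lipid droplet accumulation (500–530 nm total intensity; droplet/cell object ratio) in oleic acid-fed (400 uM added) Drosophila S3 cells treated with a concentration series. 20 uM Triacsin C defined 100% inhibition.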

[1] = measured here: cell number channel AC50, cells fed with added oleic acid
[2] = measured here: lipid fluorescence (Fed channel) AC50, cells fed with added oleic acid

| SMILES | cell number change [%] | AC50 [1] | AC50 [2] |
| --- | --- | --- | --- |
| Cc1ccc(C)c(NC(=O)CSc2nnc(C)c(=O)n2N)c1 | 47.2 | 11.6 µM [rising, partial curve] | 23.1 µM [rising, partial curve] |
| O=C(COc1ccccc1-c1ccccc1)N/N=C/c1ccc2ccccc2c1 | -34.4 | 9.2 µM [falling, partial curve] | 14.6 µM [falling, partial curve] |
| CCC1(C)Cc2c(c(=O)n(-c3ccccc3)c3ncnc(N)c23)CO1 (stereo unspecified) | 0.674 | – | 0.411 µM [falling, partial curve, poor fit] |
| N/C(=N\OC(=O)Cc1cccs1)c1ccc(Cl)cc1 | 21.6 | – | 2.91 µM [rising, partial curve] |
| COc1cc(/C=C/C(=O)OCC(=O)NC(=O)NC23CC4CC(CC(C4)C2)C3)ccc1OCC#N | -33.5 | 2.91 µM [rising, single point] | 3.66 µM [rising, full curve] |
| CCOc1ccccc1C(=O)NC1CCNCC1 | 12.9 | – | 9.2 µM [rising, partial curve] |
| CC1CCCC(NC(=O)COC(=O)CCC2CCCC2)C1C (stereo unspecified) | -23.8 | – | 29.1 µM [falling, single point] |
| CC(OC(=O)COc1ccc(C#N)cc1)C(=O)Nc1ccc(Cl)cn1 (stereo unspecified) | 9.24 | – | – |
| Cc1cccc(C2NS(=O)(=O)N=C2N)c1 (stereo unspecified) | 35 | 29.1 µM [rising, single point] | 29.1 µM [falling, single point] |
| O=[N+]([O-])c1ccc(COc2ccccc2/C=N/O)cc1 | – | – | 0.0058 µM [falling, full curve, poor fit] |
| CC(C)(C)NC(=S)NCc1ccco1 | -17.2 | – | 3.26 µM [falling, single point] |
| COc1ccc2cc(CCNC(=O)CCc3ccccc3)c(=O)[nH]c2c1 | -13 | 0.13 µM [falling, full curve, poor fit] | – |
| C/C(=N\NC(=O)c1ccc(CSc2cccc3cccnc23)cc1)C1CCCCC1 | -0.918 | – | 1.46 µM [rising, partial curve] |
| O=C(NNC(=S)NCc1ccccc1)c1ccc(OC(F)F)cc1 | 24.3 | – | 0.0326 µM [rising, full curve] |
| Cc1cc(C)c(NC(=O)CNC(=O)CNC(=O)C2CCCCC2)c(C)c1 | 20.4 | – | 2.91 µM [falling, single point] |
| CCOc1ccc(-n2c(SCC(=O)Nc3ccc(CC)cc3)nc3n[nH]c(C)c3c2=N)cc1 | -46.6 | 23.1 µM [falling, single point] | 18.4 µM [falling, single point] |
| O=C(CCNS(=O)(=O)c1ccccc1C(F)(F)F)NCCCc1ccccc1 | -3.42 | – | 2.31 µM [rising, single point] |
| COc1ccc(C(=O)NCc2ccc(-n3cccc3)cc2)cc1OC | -6.15 | 6.51 µM [rising, single point] | 6.51 µM [rising, partial curve, poor fit] |
| CN(C)C(CNC(=O)c1ccc2[nH]c(=O)c(=O)[nH]c2c1)c1ccco1 (stereo unspecified) | -33.9 | 25.9 µM [falling, single point] | – |
| COc1ccc(CNC(=O)CCN2C(=O)c3ccccc3S2(=O)=O)cc1 | -19.9 | – | 14.6 µM [falling, partial curve] |

A run of entries from the list above:

| SMILES | cell number change [%] | AC50 [1] | AC50 [2] |
| --- | --- | --- | --- |
| COc1ccc2cc(CCNC(=O)CCc3ccccc3)c(=O)[nH]c2c1 | -13 | 0.13 µM [falling, full curve, poor fit] | – |
| C/C(=N\NC(=O)c1ccc(CSc2cccc3cccnc23)cc1)C1CCCCC1 | -0.918 | – | 1.46 µM [rising, partial curve] |

Carrying on.

| SMILES | cell number change [%] | AC50 [1] | AC50 [2] |
| --- | --- | --- | --- |
| CN(CC(O)COc1c(F)cc(Br)cc1F)C1CCCCC1 (stereo unspecified) | 4.75 | 2.06 µM [falling, partial curve] | – |
| CCOc1ccc(N2C(=O)/C(=C/c3ccccc3OCC(=O)OC)N(CC(=O)OC)C2=S)cc1 | 27.6 | – | 20.6 µM [rising, single point] |
| Cc1ccc(C)c(Cn2nc(-c3ccccc3)ccc2=O)c1 | -20.6 | – | – |
| Cc1c(C(=O)NNC(=O)c2csc(N3CCOCC3)n2)oc2ccccc12 | 17.9 | – | 18.4 µM [rising, single point] |
| Cc1cc(C(=O)NC2CCCC(C)C2C)c2ccccc2n1 (stereo unspecified) | -1.16 | – | 18.4 µM [rising, partial curve] |
| COc1ccc(/C=N/N=C2/NC(=O)C(c3ccccc3)(c3ccccc3)S2)cc1 | – | – | 20.6 µM [falling, partial curve] |
| COc1cc(C(=O)OCc2cccc(S(=O)(=O)N3CCOCC3)c2)ccc1OCC(C)C | -6.14 | – | 0.58 µM [rising, single point] |
| COc1ccccc1NC(=O)CSc1nnc(CC(=O)Nc2ccccc2C)n1C | 21.8 | – | – |
| CCOc1ccc2nc(SCC(=O)Nc3ccc4c(c3)OCO4)sc2c1 | 14.4 | – | – |
| COC(=O)c1ccc(NC(=O)c2ccc(NC(=O)C3CCCO3)cc2)cc1 (stereo unspecified) | 59.3 | 16.4 µM [rising, single point] | 18.4 µM [rising, partial curve] |
| O=C(c1ccco1)N1CCN(Cc2ccc(F)cc2Cl)CC1 | – | – | 2.91 µM [falling, single point] |
| COc1cccc(NC(=O)CCN2C(=O)c3ccccc3S2(=O)=O)c1 | – | – | 0.731 µM [rising, full curve, poor fit] |
| Cc1ccccc1Cn1cc(NS(=O)(=O)c2cn(C)nc2C)cn1 | 17.6 | – | 2.91 µM [rising, full curve] |
| CN(c1ccccc1)S(=O)(=O)c1cc(C(=O)OCC(=O)N2CCN(C(=O)c3ccco3)CC2)ccc1Cl | -114 | – | – |
| Cc1nc2sc(C(c3ccc(Cl)cc3)N3CCN(C(=O)c4ccco4)CC3)c(O)n2n1 (stereo unspecified) | 4.19 | – | 29.1 µM [falling, single point] |
| COc1ccc(-c2cn(Cc3ccc(C(N)=O)cc3)c(CCN)n2)cc1 | 10.6 | – | 0.461 µM [rising, full curve, poor fit] |
| Cn1c(=O)n(C)c2cc(S(=O)(=O)Nc3ccccc3O)ccc21 | 15.9 | – | 6.51 µM [falling, single point] |
| CCC(=O)N1CCN(c2nc3ccccc3s2)CC1 | 18.9 | – | 23.1 µM [rising, partial curve] |
| O=C(Nc1ccc(F)cc1)/C(Cl)=C/c1ccccc1 | -39.5 | – | 6.51 µM [falling, single point] |
